Measured values: paper PMC4880913
Construct, isoform or probe ends are uncertain for at least one entry. Weaker means in comparison with the reference protein, sequence or condition of that experiment. At least one verdict was read from the data and is not stated in words by the source. Tags and fusion partners may be left off the protein sequences shown.

Target: T1, p63-DBD L210R L249R (UniProt Q9H3D4)
T1 sequence (looked up): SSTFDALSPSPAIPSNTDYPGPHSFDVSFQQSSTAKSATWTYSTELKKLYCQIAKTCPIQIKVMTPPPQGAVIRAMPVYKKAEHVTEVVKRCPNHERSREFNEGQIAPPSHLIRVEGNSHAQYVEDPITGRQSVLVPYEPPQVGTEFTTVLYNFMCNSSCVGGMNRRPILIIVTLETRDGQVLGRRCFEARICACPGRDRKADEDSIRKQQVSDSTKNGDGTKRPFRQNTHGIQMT
Assay: fluorescence polarization
Details: FP: 100 nM 5'-fluorescein dsDNA, 10 mM sodium phosphate pH 7.2, 1 mM DTT, temperature not stated; recombinant protein; residues 153-388; label: 5'-fluorescein

## TTAGGACATGTCCATC (double strand) [con2 x 5 (FP)]
  binding result: binds more weakly
